{
  "source": "patent US10023708B2",
  "about": "“Method of producing a delivery device” (PTT HOLDING APS, priority 2011, dated 2018)",
  "assay": "Loading of Ceragenin CSA-13 into IPN discs and its release",
  "conditions": "IPN discs about 20% PHEMA; EtOH + CO2, about 300 bars, about 75° C., 21 hours 50 minutes",
  "experimental": "6 IPN discs (010 mm, thickness 1-2 mm) obtained from Example 1 and with about 20% PHEMA (total mass about 1.3266 g) was loaded with about 500 mg Ceragenin CSA-13. The loading solvent was 2.00 ml 99.8% EtOH supplied by Merck (Germany) and N48 CO2 (supplied by Air Liquid Denmark A/S (Denmark)). The Ceragenin CSA-13 was initially dissolved in the 2.00 ml 99.8% EtOH and injected into a reactor of 16 ml comprising the discs. The pressure was raised to about 300 bars by injecting CO2 and the temperature was raised to about 75° C. The discs were treated at this pressure and temperature under stirring (1100 rpm) for 21 hours and 50 minutes, where after the pressure was reduced, the discs were withdrawn and allowed to cool down.",
  "data": [
    {"smiles": "CCCCCCCCNCCC[C@@H](C)[C@H]1CC[C@H]2[C@@H]3[C@H](OCCCN)C[C@@H]4C[C@H](OCCCN)CC[C@]4(C)[C@H]3C[C@H](OCCCN)[C@]12C", "note": "[Ceragenin CSA-13]", "values": [
      {"measurement": "amount loaded into the discs", "value": "a large amount"}
    ]}
  ]
}
